Reference: PubChem BioAssay AID504467 (National Center for Advancing Translational Sciences (NCATS), 2011)
Screen size: about 330,000 compounds; about 7,700 (2.3%) were called active. Inconclusive results, whose numbers are uncertain, are shown with a selection of clear calls. Calls come from the whole dose curve; as a rule, active = well fitted inhibition curve with a large enough effect; inconclusive = small, poorly fitted or top-dose-only effect, or effect the other way; inactive = flat fitted curve, though single readings scatter. A potency beside an inconclusive call is a rough fit, not a confirmed value.

Experiment: qHTS screen for small molecules that inhibit ELG1-dependent DNA repair in human embryonic kidney (HEK293T) cells expressing luciferase-tagged ELG1; note: nearly all actives have a fitted effect of over 55% in size
Conditions: HEK293T ELG1-luciferase reporter, luminescence, 16 h, DNA damage induced by 5-fluorouridine; series mostly up to 46.1 µM
In short: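 HEK293T cells expressing luciferase-tagged ELG1 (2,000/well) received 5-Fluorouridine plus compound or DMSO for 16 hr at 37 °C. Luciferase was read by ONE-Glo luminescence after 30 min at room temperature.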
Potency is the fitted concentration of half-maximal effect.

Row | SMILES | Potency
1 | N#C/C(=C\c1ccc(OCc2cccc(C(=O)O)c2)cc1)C(=O)NCc1ccco1 | inconclusive: 0.517 µM [activator, full curve]
2 | COC(=O)C1=C(C)NC(=O)NC1c1ccc(N2CCC(c3ccccc3)=N2)cc1 (configuration not stated) | inconclusive: 18.3 µM [inhibitor, partial curve, poor fit]
3 | COc1ccc(OCc2nnc(SC(C)C(=O)Nc3nccs3)n2-c2ccccc2)cc1 (configuration not stated) | inconclusive: 16.4 µM [inhibitor, partial curve]
4 | CN1CCN(c2ccc(NC(=O)c3cccc(S(=O)(=O)N4CCCC4)c3)cc2)CC1 | inconclusive: 2.91 µM [activator, single point]
5 | Cc1ccc(NC(=O)CCCCCN2C(=O)[C@@H]3Cc4ccccc4CN3C2=O)c(C)c1 | inactive
6 | Cc1cc(SCC(=O)N/N=C/c2ccc(O)c(O)c2)nc2ccccc12 | inconclusive: 16.4 µM [inhibitor, single point]
7 | COc1ccccc1C(=O)COC(=O)CSCC(=O)Nc1cc(C)on1 | inconclusive: 16.4 µM [activator, single point]
8 | COc1ccc(NC(=O)N(Cc2cc3cc(C)ccc3[nH]c2=O)CC2CCCO2)cc1 (configuration not stated) | inconclusive: 20.6 µM [inhibitor, partial curve, poor fit]
9 | CN(C)/C=C1\C(=O)N(c2ccc(Oc3ccccc3)cc2)CS1=O (configuration not stated) | inconclusive: 23.1 µM [activator, single point]
10 | O=C(O/N=C/c1ccc(Cl)cc1)C1CCCCC1 | inactive
11 | O=C(c1ccco1)N1CCN(C(=O)c2ccc(-c3cccc(C(F)(F)F)c3)o2)CC1 | inconclusive: 8.2 µM [inhibitor, single point]
12 | O=C(CNC(c1ccccc1)c1ccccc1)Nc1ccccc1-c1ccccc1 | inconclusive: 16.4 µM [inhibitor, partial curve]
13 | CCCOC(=O)C1[C@H]2C(=O)N(C(C)c3ccc(OC)cc3)C[C@]23C=C[C@H]1O3 (some centres not stated) | inconclusive: 23.1 µM [activator, single point]
14 | CCN(CC)c1ccc(/C=N/NC(=S)NC)c(O)c1 | inconclusive: 29.1 µM [inhibitor, single point]
15 | COc1ccc(NC(=S)NC(=O)/C=C/c2ccco2)cc1 | inactive
16 | Cc1ccc(C(=O)NC(C)C2CC3CCC2C3)c(C)c1 (configuration not stated) | inconclusive: 20.6 µM [activator, partial curve]
17 | O=C1CCCC(O)=C1C=Nc1ccc2c(c1)oc1ccccc12 | inconclusive: 11.6 µM [activator, partial curve]
18 | O=C(COc1ccccc1-c1ccccc1)N/N=C/c1ccncc1 | inconclusive: 20.6 µM [inhibitor, partial curve, poor fit]
19 | Clc1ccc(OCCSc2nnnn2C2CCCCC2)cc1 | inconclusive: 20.6 µM [activator, single point]
20 | CCN(CC(=O)NCc1ccc(F)cc1)C(=O)c1ccc(Cl)cc1 | inactive
21 | CCN(CC)c1ccc(NS(=O)(=O)c2cn(C)c(=O)n(C)c2=O)c(C)c1 | inconclusive: 20.6 µM [activator, partial curve]

Row | SMILES | Potency
22 | Cc1cccc2nc(CSc3nc4ccccc4o3)cn12 | inconclusive: 18.4 µM [activator, partial curve]
23 | Fc1ccc(-n2nnc(-c3cccnc3)n2)cc1 | inconclusive: 25.9 µM [activator, single point]
24 | Cc1ccc(C)c(SCC(=O)NNC(=O)c2csc(N3CCOCC3)n2)c1 | inactive
25 | CCc1ccc(NC(=S)N(Cc2cccnc2)Cc2ccco2)cc1 | inconclusive: 16.4 µM [inhibitor, single point]
26 | COc1ccc(NC(=O)CSc2nnc(Cc3cccn3C)n2-c2ccc(C)cc2)cc1OC | inactive
27 | Cc1nc2ccccc2c(=O)n1NC(=O)c1ccc([N+](=O)[O-])cc1 | inactive
28 | Cc1ccc(CNC(=O)Cn2cnc3c(NC(=O)OCc4ccccc4)ncnc32)o1 | inconclusive: 16.4 µM [activator, single point]
29 | Cc1cc(C)n2nc(-c3ccccc3)c(-c3ccccc3)c2n1 | inconclusive: 17.8 µM [inhibitor, partial curve, poor fit]
30 | CCOc1ccc2[nH]cc(C(=O)NCc3ccccc3)c(=O)c2c1 | inconclusive: 9.2 µM [inhibitor, partial curve, poor fit]
31 | CCCCNC(=O)c1cn(CC)c2cc(N3CCN(C(=O)c4ccco4)CC3)c(F)cc2c1=O | active: 14.6 µM
32 | CCC(C)NC(=O)CCn1ccc2cc(S(=O)(=O)N3CCCC3)ccc21 (configuration not stated) | inactive
33 | O=C1COc2ccc(C(=O)CSc3nnc(Cc4cccs4)n3-c3ccc(Cl)cc3)cc2N1 | inconclusive: 29.1 µM [inhibitor, single point]
34 | COc1ccc(C(=O)/C(=C\c2ccco2)N2C=CC=CC2=C(C#N)C#N)cc1 | inconclusive: 25.9 µM [inhibitor, partial curve, poor fit]
35 | CCn1c(/N=C/c2ccccc2O)nc2ccccc21 | inactive
36 | COc1ccccc1NC(=O)c1sc2nc(-c3ccco3)ccc2c1N | inconclusive: 18.4 µM [activator, single point]
37 | CCN(CC)S(=O)(=O)c1ccc(N2CC(C(=O)NCCc3c[nH]c4ccccc34)CC2=O)cc1 (configuration not stated) | inconclusive: 18.3 µM [inhibitor, partial curve, poor fit]
38 | N#Cc1c(N)nc2c3c(sc(=N)c2c1N)NC(=O)CC3c1ccccc1Cl (configuration not stated) | inconclusive: 8.2 µM [activator, partial curve, poor fit]
39 | O=C(OCC(=O)N1CCOCC1)c1ccc(F)cc1Cl | inconclusive: 18.3 µM [activator, single point]
40 | Cc1cccc(-c2nnc(SCC(=O)C(C)(C)C)n2C)c1 | inconclusive: 29.1 µM [activator, single point]
41 | O=C(NNC(=S)Nc1cccc(Cl)c1)c1ccccc1 | inconclusive: 3.26 µM [activator, full curve]
42 | CCCCCc1ccc(-c2ccc(=O)[nH]n2)cc1 | inconclusive: 20.6 µM [activator, partial curve]

3 entries from above, as a markdown table.

| Row | SMILES | Potency |
| --- | --- | --- |
| 16 | Cc1ccc(C(=O)NC(C)C2CC3CCC2C3)c(C)c1 (configuration not stated) | inconclusive: 20.6 µM [activator, partial curve] |
| 17 | O=C1CCCC(O)=C1C=Nc1ccc2c(c1)oc1ccccc12 | inconclusive: 11.6 µM [activator, partial curve] |
| 18 | O=C(COc1ccccc1-c1ccccc1)N/N=C/c1ccncc1 | inconclusive: 20.6 µM [inhibitor, partial curve, poor fit] |
